Measurements reported in patent publication US20050079503A1, “Binding domain of Siah (seven in absentia homolog) protein” (PETER MacCALLUM CANCER INSTITUTE, ST. VINCENT'S INSTITUTE …, priority 2001, published 2005).
These are yes or no findings as the source states them, for the method shown. Some binding calls cover weakened binding; strength is not graded here. Tags and fused reporters may be left off the sequences shown.

How the values were obtained:
[1] = target: T1, GST-PHYL108-130 (Drosophila); assay: pull-down on GSH-Sepharose with immobilised GST-PHYL108-130, Coomassie-stained SDS-PAGE
T1 construct: also called PHYL peptide as a fusion protein with glutathione-S-transferase; not shown: glutathione-S-transferase (GST) fusion partner
T1 chain: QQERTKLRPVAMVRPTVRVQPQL

[2] = target: T1, GST-PHYL108-130; assay: pull-down on glutathione-Sepharose beads carrying the GST fusion of the peptide
[3] = target: T1, GST-PHYL108-130; assay: pull-down: GST-PHYL108-130 on GSH-Sepharose mixed with MBP-Siah, Coomassie-stained SDS-PAGE

B1: MBP-Siah1a-ZC fusion protein (protein, mouse, UniProt P61092 80-282, looked up, not shown: large carriers)
chain: GSIRNLAMEKVANSVLFPCKYASSGCEITLPHTEKAEHEELCEFRPYSCPCPGASCKWQGSLDAVMPHLMHQHKSITTLQGEDIVFLATDINLPGAVDWVMMQSCFGFHFMLVLEKQEKYDGHQQFFAIVQLIGTRKQAENFAYRLELNGHRRRLTWEATPRSIHEGIATAIMNSDCLVFDTSIAQLFAENGNLGINVTISMC
binding [1]: binds

B2: MBP-Siah (protein, UniProt P61092 80-282, looked up, not shown: large carriers)
chain: GSIRNLAMEKVANSVLFPCKYASSGCEITLPHTEKAEHEELCEFRPYSCPCPGASCKWQGSLDAVMPHLMHQHKSITTLQGEDIVFLATDINLPGAVDWVMMQSCFGFHFMLVLEKQEKYDGHQQFFAIVQLIGTRKQAENFAYRLELNGHRRRLTWEATPRSIHEGIATAIMNSDCLVFDTSIAQLFAENGNLGINVTISMC
binding [2]: binds | binding [3]: binds

B3: SINA (seven in absentia), Drosophila (protein, UniProt P21461 1-314, looked up)
chain: MSNKINPKRREPTAAAAGAGATGVATNTSTSTGSSSAGNTSSANTSSSSSSSLSSAGGGDAGMSADLTSLFECPVCFDYVLPPILQCSSGHLVCVSCRSKLTCCPTCRGPLANIRNLAMEKVASNVKFPCKHSGYGCTASLVYTEKTEHEETCECRPYLCPCPGASCKWQGPLDLVMQHLMMSHKSITTLQGEDIVFLATDINLPGAVDWVMMQSCFGHHFMLVLEKQEKYDGHQQFFAIVQLIGSRKEAENFVYRLELNGNRRRLTWEAMPRSIHEGVASAIHNSDCLVFDTSIAQLFADNGNLGINVTISLV
binding [2]: binds
